Assay results as given in US11618742B2, “Radical polymerization initiator, composition containing same, cured product of composition, production method for cured product, and compound” (ADEKA CORPORATION, priority 2018, dated 2023).

Assay: Maximum absorption wavelength (absorption spectrum, spectrophotometer)
Type: physicochemical
Conditions: measurement solution in acetonitrile (low solubility in water)
Text: Hereinafter, a method of measuring the maximum absorption wavelength presents no problem as long as it is capable of measuring the maximum absorption wavelength with good accuracy and, for example, the following method can be employed: […] (2) load the measurement aqueous solution to a quartz cell (optical path length=10 mm, thickness 1.25 mm), and measure the absorption spectrum using a spectrophotometer (e.g., visible-ultraviolet absorption spectrometer V-670 manufactured by JASCO Corporation). As the absorption spectrum of the measurement aqueous solution, a corrected absorption spectrum obtained by measuring the absorption spectrum of water alone in advance and deducting this absorption spectrum of water from the absorption spectrum of the measurement aqueous solution is used. […] (2) The thus obtained measurement aqueous solutions were each loaded to a quartz cell (optical path length—10 mm, thickness 1.25 mm), and an absorption spectrum was measured using a spectrophotometer (e.g., visible-ultraviolet absorption spectrometer V-670 manufactured by JASCO Corporation). […] Further, as the absorption spectrum, a corrected absorption spectrum obtained by measuring the absorption spectrum of the solvent itself in advance and deducting this absorption spectrum of the solvent from the absorption spectrum of the measurement solution was used.

Maximum absorption wavelength: 325 nm
Compound: O=C(c1ccccc1)C1(O)CCCCC1 [Compound 102]
